# This is one part of the list.
# The chains behind the UniProt entries cited, without tags or fusion partners. Where a name states a change or a piece, a line headed by the entry shows the natural chain unless it says otherwise.
# UniProt Q8NBZ7: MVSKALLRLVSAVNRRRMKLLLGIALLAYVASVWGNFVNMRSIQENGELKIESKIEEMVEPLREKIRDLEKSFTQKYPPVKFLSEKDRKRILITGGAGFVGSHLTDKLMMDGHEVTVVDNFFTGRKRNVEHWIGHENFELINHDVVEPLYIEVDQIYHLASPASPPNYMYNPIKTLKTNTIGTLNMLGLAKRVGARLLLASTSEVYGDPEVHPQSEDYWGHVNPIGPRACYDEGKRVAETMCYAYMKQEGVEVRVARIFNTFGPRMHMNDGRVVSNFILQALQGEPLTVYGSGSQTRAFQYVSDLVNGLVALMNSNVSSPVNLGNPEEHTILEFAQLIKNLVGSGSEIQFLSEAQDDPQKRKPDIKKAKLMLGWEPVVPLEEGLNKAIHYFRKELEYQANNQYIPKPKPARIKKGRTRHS
# UniProt P50552: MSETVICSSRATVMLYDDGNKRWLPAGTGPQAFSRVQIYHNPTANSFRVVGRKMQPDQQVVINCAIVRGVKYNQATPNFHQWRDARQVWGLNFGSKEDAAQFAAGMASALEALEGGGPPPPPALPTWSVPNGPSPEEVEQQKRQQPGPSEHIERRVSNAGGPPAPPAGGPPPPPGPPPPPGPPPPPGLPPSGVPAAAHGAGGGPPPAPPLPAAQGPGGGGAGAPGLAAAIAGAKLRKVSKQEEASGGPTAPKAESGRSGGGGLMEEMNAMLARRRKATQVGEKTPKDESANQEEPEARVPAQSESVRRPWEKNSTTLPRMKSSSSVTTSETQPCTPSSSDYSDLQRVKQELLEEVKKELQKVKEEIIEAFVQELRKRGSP
# UniProt Q9UKW4: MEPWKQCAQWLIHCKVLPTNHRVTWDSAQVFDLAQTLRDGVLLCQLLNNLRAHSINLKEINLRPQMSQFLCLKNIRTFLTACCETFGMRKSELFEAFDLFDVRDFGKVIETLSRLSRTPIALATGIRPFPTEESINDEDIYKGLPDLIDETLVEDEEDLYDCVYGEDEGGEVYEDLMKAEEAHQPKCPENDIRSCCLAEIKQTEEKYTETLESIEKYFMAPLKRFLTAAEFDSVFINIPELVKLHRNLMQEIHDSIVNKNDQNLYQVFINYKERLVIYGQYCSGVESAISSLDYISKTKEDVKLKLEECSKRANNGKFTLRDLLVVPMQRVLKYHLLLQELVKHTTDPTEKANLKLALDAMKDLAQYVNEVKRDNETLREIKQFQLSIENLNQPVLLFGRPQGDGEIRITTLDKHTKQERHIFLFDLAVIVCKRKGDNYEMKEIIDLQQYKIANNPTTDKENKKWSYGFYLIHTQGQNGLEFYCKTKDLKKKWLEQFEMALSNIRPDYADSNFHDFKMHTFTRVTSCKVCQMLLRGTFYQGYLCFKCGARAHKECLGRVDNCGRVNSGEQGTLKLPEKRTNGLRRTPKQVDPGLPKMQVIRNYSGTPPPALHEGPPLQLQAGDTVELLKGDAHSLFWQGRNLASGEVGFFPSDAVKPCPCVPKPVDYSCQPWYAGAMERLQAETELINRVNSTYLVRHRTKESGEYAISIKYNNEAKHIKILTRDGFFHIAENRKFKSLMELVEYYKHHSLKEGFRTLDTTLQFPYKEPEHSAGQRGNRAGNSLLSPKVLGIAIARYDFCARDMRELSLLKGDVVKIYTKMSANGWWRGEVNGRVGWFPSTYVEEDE
# UniProt P55072, whole entry, looked up: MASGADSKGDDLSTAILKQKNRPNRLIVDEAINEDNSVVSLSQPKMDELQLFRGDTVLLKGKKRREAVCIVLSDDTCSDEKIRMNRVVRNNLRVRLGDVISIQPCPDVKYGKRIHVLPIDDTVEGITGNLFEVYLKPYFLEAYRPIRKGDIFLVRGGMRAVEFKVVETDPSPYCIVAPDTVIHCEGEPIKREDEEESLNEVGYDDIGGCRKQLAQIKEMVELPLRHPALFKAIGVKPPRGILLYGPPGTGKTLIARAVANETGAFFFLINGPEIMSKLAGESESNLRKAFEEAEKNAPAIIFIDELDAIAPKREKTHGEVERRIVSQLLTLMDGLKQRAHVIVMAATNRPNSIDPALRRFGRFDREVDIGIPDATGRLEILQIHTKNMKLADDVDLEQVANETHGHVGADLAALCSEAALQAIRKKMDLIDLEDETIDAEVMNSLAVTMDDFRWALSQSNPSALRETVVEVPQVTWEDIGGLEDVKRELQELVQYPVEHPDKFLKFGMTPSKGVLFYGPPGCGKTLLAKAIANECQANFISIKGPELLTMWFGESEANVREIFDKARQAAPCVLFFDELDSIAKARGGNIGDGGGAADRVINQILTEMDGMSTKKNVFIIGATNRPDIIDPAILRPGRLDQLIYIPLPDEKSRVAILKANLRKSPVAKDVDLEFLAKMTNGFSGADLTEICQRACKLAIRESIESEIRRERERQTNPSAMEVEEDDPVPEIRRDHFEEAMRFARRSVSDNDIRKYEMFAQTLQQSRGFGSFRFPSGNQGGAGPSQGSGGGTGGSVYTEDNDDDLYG
# UniProt Q9BRU9: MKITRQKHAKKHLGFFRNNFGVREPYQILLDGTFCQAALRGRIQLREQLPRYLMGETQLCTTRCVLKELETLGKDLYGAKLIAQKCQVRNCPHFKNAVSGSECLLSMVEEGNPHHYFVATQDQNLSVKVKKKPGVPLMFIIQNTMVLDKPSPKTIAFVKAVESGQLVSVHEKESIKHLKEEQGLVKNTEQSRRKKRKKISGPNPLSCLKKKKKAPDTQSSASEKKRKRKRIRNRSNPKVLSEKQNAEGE
# UniProt Q99536: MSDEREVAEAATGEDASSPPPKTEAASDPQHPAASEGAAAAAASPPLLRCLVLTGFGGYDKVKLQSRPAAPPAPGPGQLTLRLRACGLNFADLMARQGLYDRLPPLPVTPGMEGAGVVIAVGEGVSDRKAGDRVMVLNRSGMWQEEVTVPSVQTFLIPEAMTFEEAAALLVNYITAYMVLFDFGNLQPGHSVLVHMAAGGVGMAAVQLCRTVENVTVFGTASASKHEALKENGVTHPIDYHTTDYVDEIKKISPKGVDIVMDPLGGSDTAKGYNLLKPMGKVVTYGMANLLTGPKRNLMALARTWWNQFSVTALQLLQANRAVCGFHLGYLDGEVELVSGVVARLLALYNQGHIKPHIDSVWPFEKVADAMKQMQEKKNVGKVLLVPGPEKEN
# UniProt Q8IV63: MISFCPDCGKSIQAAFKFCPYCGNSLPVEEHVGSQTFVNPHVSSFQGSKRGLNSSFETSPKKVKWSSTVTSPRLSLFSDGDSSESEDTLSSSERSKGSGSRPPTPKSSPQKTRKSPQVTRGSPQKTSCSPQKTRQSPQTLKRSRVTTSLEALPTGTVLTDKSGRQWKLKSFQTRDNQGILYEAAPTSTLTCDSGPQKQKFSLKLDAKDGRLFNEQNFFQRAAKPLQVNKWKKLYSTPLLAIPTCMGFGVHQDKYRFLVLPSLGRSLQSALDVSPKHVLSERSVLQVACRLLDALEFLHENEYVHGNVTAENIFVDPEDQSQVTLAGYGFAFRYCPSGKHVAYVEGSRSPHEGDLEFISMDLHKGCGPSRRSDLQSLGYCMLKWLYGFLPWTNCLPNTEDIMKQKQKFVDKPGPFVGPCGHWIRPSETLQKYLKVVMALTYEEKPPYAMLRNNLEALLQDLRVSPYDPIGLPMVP
# UniProt P18206: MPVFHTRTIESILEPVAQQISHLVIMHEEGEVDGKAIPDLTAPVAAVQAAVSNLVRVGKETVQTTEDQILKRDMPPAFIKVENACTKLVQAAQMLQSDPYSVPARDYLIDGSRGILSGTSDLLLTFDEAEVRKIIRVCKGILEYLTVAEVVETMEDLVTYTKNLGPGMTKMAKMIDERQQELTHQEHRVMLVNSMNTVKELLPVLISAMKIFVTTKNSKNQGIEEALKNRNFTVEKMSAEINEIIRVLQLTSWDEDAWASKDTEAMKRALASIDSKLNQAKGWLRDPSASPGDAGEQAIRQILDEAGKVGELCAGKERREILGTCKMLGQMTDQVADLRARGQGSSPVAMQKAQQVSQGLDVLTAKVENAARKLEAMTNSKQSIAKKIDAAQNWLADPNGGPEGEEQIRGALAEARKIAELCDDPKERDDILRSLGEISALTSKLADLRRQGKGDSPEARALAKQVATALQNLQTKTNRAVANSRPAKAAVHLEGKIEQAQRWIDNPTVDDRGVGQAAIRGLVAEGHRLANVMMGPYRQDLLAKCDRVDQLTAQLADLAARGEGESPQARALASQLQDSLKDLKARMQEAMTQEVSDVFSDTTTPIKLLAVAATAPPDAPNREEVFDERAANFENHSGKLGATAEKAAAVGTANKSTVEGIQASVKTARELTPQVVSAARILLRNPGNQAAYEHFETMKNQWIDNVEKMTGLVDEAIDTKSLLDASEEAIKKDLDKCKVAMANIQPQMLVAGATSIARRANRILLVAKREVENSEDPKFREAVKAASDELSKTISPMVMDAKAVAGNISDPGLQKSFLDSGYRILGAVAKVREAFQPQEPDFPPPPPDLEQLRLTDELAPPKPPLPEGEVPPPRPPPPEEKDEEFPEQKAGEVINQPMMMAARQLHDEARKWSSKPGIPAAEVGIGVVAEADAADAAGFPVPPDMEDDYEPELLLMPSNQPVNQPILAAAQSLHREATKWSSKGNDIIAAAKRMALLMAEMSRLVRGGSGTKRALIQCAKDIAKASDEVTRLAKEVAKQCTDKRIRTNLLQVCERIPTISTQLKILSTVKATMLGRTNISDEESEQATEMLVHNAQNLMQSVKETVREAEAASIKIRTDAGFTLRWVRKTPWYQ
# UniProt Q69YN4: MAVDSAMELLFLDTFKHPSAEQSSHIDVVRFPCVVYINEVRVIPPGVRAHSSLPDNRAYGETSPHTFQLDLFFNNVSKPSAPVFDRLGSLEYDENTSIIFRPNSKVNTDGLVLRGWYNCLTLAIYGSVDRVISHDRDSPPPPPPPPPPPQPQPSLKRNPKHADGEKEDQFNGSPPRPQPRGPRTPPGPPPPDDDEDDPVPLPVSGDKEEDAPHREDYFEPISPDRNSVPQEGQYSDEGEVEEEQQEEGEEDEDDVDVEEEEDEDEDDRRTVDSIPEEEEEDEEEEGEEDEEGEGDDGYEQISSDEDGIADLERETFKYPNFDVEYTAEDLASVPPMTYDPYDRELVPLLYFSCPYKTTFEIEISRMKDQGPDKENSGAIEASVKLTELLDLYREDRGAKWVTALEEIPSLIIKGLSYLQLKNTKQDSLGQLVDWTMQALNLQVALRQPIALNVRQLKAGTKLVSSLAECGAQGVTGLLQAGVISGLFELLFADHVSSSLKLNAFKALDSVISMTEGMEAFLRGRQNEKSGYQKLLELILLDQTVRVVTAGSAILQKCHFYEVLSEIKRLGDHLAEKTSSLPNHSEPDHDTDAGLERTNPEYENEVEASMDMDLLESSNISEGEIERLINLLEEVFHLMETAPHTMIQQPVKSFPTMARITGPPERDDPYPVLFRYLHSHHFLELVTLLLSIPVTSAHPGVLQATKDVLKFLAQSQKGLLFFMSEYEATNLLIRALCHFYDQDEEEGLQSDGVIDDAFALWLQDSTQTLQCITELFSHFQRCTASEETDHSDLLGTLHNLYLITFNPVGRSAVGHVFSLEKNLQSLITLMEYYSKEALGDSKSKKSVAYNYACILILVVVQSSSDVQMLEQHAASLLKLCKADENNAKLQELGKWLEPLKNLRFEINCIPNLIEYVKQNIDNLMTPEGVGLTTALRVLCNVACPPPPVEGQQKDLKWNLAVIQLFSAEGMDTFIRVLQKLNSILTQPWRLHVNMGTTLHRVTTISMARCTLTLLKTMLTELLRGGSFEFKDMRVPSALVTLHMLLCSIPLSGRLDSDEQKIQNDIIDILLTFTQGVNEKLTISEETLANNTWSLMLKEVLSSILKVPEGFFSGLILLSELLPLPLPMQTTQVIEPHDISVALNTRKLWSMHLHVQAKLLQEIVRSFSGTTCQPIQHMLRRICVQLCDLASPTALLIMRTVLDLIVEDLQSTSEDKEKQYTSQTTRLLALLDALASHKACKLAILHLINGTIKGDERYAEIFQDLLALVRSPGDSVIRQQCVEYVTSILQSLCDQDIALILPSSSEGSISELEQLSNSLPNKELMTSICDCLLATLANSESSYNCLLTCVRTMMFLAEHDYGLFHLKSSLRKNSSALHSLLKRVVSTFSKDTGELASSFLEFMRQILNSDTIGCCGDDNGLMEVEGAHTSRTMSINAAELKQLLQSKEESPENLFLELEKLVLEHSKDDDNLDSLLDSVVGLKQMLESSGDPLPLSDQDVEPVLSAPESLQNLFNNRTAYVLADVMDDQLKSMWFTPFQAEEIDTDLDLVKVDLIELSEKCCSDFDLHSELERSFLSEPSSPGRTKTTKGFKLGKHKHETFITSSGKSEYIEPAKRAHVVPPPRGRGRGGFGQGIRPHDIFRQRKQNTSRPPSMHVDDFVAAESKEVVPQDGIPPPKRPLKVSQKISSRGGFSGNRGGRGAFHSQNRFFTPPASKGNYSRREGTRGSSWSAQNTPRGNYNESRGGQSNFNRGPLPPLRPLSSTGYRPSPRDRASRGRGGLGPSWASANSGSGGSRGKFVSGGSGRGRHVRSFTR
# Compound: Cc1cc(ccc1-c1ccccc1)C(=O)N1CCCN(CC1)C(=O)CCl [compound 10]
# Test: probe-labelled cysteine peptide fold change vs DMSO (competition) (log2 fold change); higher = less target engagement (more negative = stronger competition)
# Conditions: THP-1, incubation time: 4 h
# 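Also: competitive profiling in live THP-1 cells: cysteine peptides tagged with an iodoacetamide desthiobiotin (IA-DTB) probe, intensity after compound treatment relative to DMSO-treated cells.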
Target,probe-labelled cysteine peptide fold change (10 µM),probe-labelled cysteine peptide fold change (50 µM)
WAC_Q9BTA9_553_STCSLTPALAAHFSENLIK (UniProt Q9BTA9),0.0122,-0.619
VCPIP1_Q96JH7_219_SQECLIPVHVDGDGHCLVHAVSR (UniProt Q96JH7),-2.4,< -5
VLDLR_P98155_344_VCNQEQDCR (UniProt P98155),0.0301,-0.187
VARS_P26640_663_GIEDNPMVVPLCNR (UniProt P26640),-0.209,-0.093
UTP15_Q8TED0_385_VLDPTCTIK (UniProt Q8TED0),0.0663,-0.0897
VPS13C_Q709C8_3723_ACNAIEDAQSTR (UniProt Q709C8),-0.217,0.0523
UXS1_Q8NBZ7_242_VAETMCYAYMK (UniProt Q8NBZ7),-0.0516,-0.0372
VASP_P50552_64_MQPDQQVVINCAIVR (UniProt P50552),0.0559,0.166
VAV3_Q9UKW4_7_QCAQWLIHCK (UniProt Q9UKW4),0.0775,0.261
VPS53_Q5VIR6_321_IAVEFCHVTR (UniProt Q5VIR6),0.0427,0.134
VAC14_Q08AM6_79_KGGLIGLAACSIALGK (UniProt Q08AM6),0.0198,0.163
VPS16_Q9H269_763_SPIGYLPFVEICMK (UniProt Q9H269),0.149,0.152
VCP_P55072_77_EAVCIVLSDDTCSDEK (UniProt P55072),0.133,-0.0535
UTP23_Q9BRU9_35_NNFGVREPYQILLDGTFCQAALR (UniProt Q9BRU9),-0.0779,-0.373
VCP_P55072_535_AIANECQANFISIK (UniProt P55072),-0.148,-0.299
WASF2_Q9Y6W5_27_SELECVTNITLANVIR (UniProt Q9Y6W5),-0.0434,0.208
VAT1_Q99536_324_AVCGFHLGYLDGEVELVSGVVAR (UniProt Q99536),0.0974,0.151
UTRN_P46939_1059_QLDQCSAFVNEIETIESSLK (UniProt P46939),0.274,-0.00803
VPS16_Q9H269_408_CFLDRFPPDSFVHMCQDLR (UniProt Q9H269),-0.0753,0.0447
VRK3_Q8IV63_128_TSCSPQK (UniProt Q8IV63),-0.0845,-0.292
VPS13C_Q709C8_1613_ITAELNAFNVFVCDQK (UniProt Q709C8),-0.186,-0.241
VARS_P26640_381_GETTLWNPGCDHAGIATQVVVEK (UniProt P26640),-0.0563,-0.178
VASP_P50552_64_KMQPDQQVVINCAIVR (UniProt P50552),0.0548,-0.316
UTP4_Q969X6_21_CVAYNNQSNR (UniProt Q969X6),0.215,0.152
UTP15_Q8TED0_85_DTAYCATFR (UniProt Q8TED0),0.123,0.121
VCL_P18206_422_IAELCDDPKERDDILR (UniProt P18206),0.179,-0.0967

Target,probe-labelled cysteine peptide fold change (10 µM),probe-labelled cysteine peptide fold change (50 µM)
VAV2_P52735_557_CGVGAHK (UniProt P52735),0.0428,-0.182
VAV3_Q9UKW4_44_DGVLLCQLLNNLR (UniProt Q9UKW4),0.467,0.381
VCL_P18206_422_IAELCDDPK (UniProt P18206),0.0203,0.663
VPS8_Q8N3P4_564_KCPDQGK (UniProt Q8N3P4),0.0415,0.163
VIRMA_Q69YN4_1559_CCSDFDLHSELER (UniProt Q69YN4),-0.327,-0.267
USP9X_Q93008_2293_KIIEDCSNSEETVK (UniProt Q93008),0.207,-0.0195
VAV1_P15498_31_VTWDGAQVCELAQALR (UniProt P15498),-0.361,0.203
VPS53_Q5VIR6_424_CFEPHLYVYIESQDK (UniProt Q5VIR6),0.121,0.274
VCP_P55072_174_VVETDPSPYCIVAPDTVIHCEGEPIKR (UniProt P55072),-0.154,0.0887
VPS13C_Q709C8_1372_ILTENLCEGTEDLDK (UniProt Q709C8),0.0329,-0.0418
VCPIP1_Q96JH7_940_HCTFPHLPGK (UniProt Q96JH7),-0.0827,-0.121
VCP_P55072_184_VVETDPSPYCIVAPDTVIHCEGEPIKR (UniProt P55072),-0.336,0.387
WAPL_Q7Z5K2_719_TLDDSQHHQNLSLCTAALMYILSR (UniProt Q7Z5K2),-0.181,0.025
VCP_P55072_209_REDEEESLNEVGYDDIGGCR (UniProt P55072),-0.0285,0.813
VCP_P55072_522_GVLFYGPPGCGK (UniProt P55072),-0.0375,-0.00445
VAT1_Q99536_86_ACGLNFADLMAR (UniProt Q99536),-0.0795,-0.11
VAMP7_P51809_56_LTYSHGNYLFHYICQDR (UniProt P51809),0.26,0.546
UTP23_Q9BRU9_35_EPYQILLDGTFCQAALR (UniProt Q9BRU9),0.0683,0.138
UTP18_Q9Y5J1_302_ACFSANGEEVLATSTHSK (UniProt Q9Y5J1),0.0849,0.143
VARS_P26640_1185_CSIHLQLQGLVDPARELGK (UniProt P26640),0.0564,-0.00379
VRK2_Q86Y07_239_SDVEILGYCMLR (UniProt Q86Y07),0.146,0.28
VPS28_Q9UK41_103_LDCPLAMER (UniProt Q9UK41),-0.133,-0.223
VAV1_P15498_652_NTSTNEIGWFPCNR (UniProt P15498),-0.108,-0.274
VAPA_Q9P0L0_128_CVFEMPNENDKLNDMEPSK (UniProt Q9P0L0),-0.195,-0.177
VCPIP1_Q96JH7_517_NYSFPLNNLVCSYDSVK (UniProt Q96JH7),0.0884,0.1
UTP18_Q9Y5J1_241_NCQHANAERPTVAR (UniProt Q9Y5J1),-0.0377,-0.0456

Target,probe-labelled cysteine peptide fold change (10 µM),probe-labelled cysteine peptide fold change (50 µM)
VARS_P26640_917_ADFPAGIPECGTDALR (UniProt P26640),-0.0666,0.158
UTRN_P46939_1627_LCVLNAGWSR (UniProt P46939),0.0181,-0.243
VEZF1_Q14119_319_THGQSQSINCNTCK (UniProt Q14119),-0.0855,-0.673
VAV3_Q9UKW4_187_CPENDIR (UniProt Q9UKW4),-0.136,-0.136
VCPIP1_Q96JH7_207+219_SQECLIPVHVDGDGHCLVHAVSR (UniProt Q96JH7),-1.2,-1.48
USP9Y_O00507_1238_YMPDICVIR (UniProt O00507),-0.135,-0.581
VPS45_Q9NRW7_359_NLLEVSEVEQELACQNDHSSALQNIKR (UniProt Q9NRW7),-0.165,-0.434
VPS29_Q9UBQ0_36+41_IQHILCTGNLCTK (UniProt Q9UBQ0),-0.0434,-0.0728
WAPL_Q7Z5K2_964_TGEQDGLIGTALNCVLQVPK (UniProt Q7Z5K2),0.366,0.213
VARS_P26640_444_ACFTMDPK (UniProt P26640),0.207,-0.117
VAV1_P15498_83_TFLSTCCEK (UniProt P15498),-0.0305,-0.382
VRK3_Q8IV63_288_SVLQVACR (UniProt Q8IV63),0.143,0.0779
VPS11_Q9H270_586_SDREAPGCR (UniProt Q9H270),-0.297,-0.523
VCPIP1_Q96JH7_472_CLLCGALSELHVPPEWLAPGGK (UniProt Q96JH7),0.086,0.155
VPS36_Q86VN1_271_GGIMSLTEVYCLVNR (UniProt Q86VN1),0.111,0.204
VPS11_Q9H270_568_GLCTDYRPSLEGR (UniProt Q9H270),-0.077,-0.168
UXS1_Q8NBZ7_230_ACYDEGK (UniProt Q8NBZ7),-0.116,0.0502
VIRMA_Q69YN4_781_CTASEETDHSDLLGTLHNLYLITFNPVGR (UniProt Q69YN4),0.189,0.139
VKORC1L1_Q8N0U8_58_CSAALASR (UniProt Q8N0U8),-0.141,-0.127
USP9Y_O00507_674_DGQLWLCAPQAK (UniProt O00507),-0.00329,-0.161
VTA1_Q9NP79_87_KQLGDNEAITQEIVGCAHLENYALK (UniProt Q9NP79),0.125,-0.456
VPS35_Q96QK1_653_TQCALAASK (UniProt Q96QK1),-0.0881,-0.131
UTP6_Q9NYH9_524_EQESCNMANIR (UniProt Q9NYH9),0.129,-0.0741
VPS53_Q5VIR6-4_685_CKPISMVGAEQLLLDTHSLK (UniProt Q5VIR6),-0.152,0.177
VPS8_Q8N3P4_974_AMDHIEELVSLKPCK (UniProt Q8N3P4),0.0546,-0.497
VLDLR_P98155_251_CPASEIQCGSGECIHK (UniProt P98155),-0.12,-0.248

# — the supplement of paper PMC12067093, “Discovery and optimisation of a covalent ligand for TRIM25 and its application to targeted protein ubiquitination” (Chemical Science, 2025)
